Several values for one entry are separate records, joined by “and”; a condition that tells them apart may be missing. Equal values may be shown once. The list shows a part of the results. Shown are side measurements of this screen, not its main read-out; they come without a call. Most of these compounds were active or inconclusive in the main read-out, so they are no random draw. Words in brackets tell the shape of the fitted curve; partial curves, single points and poor fits give uncertain potencies.
Assay: qHTS Assay for Lipid Storage Modulators in Drosophila S3 Cells;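 on cell number change: cells counted by Cell Tracker Red CMTPX staining in the red channel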
Conditions: BODIPY lipid droplet fluorescence, 18-24 h; for cell number change: measured here: cell count max response, cells fed with added oleic acid
Summary of the method: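 Drosophila S3 cells got compounds at several concentrations plus oleic acid (400 uM solution). Laser-scanning cytometry with 488 nm excitation read lipid droplets at 500-530 nm and cells at 575-640 nm. Percent activity was relative to 20 uM Triacsin C.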

[1] = measured here: cell number channel AC50, cells fed with added oleic acid
[2] = measured here: lipid fluorescence (Fed channel) AC50, cells fed with added oleic acid

| SMILES | cell number change | AC50 [1] | AC50 [2] |
| --- | --- | --- | --- |
| O=c1[nH]c(/C=C/c2ccccc2OC(F)F)nc2c1cnn2-c1ccccc1 | -10.3% |  |  |
| Fc1ccc(-c2csc3ncnc(Cl)c23)cc1 | -31.7% | 7.31 µM [falling, partial curve] | 16.4 µM [falling, partial curve, poor fit] |
| O=c1oc2ccc([N+](=O)[O-])cc2c(N2CCOCC2)c1[N+](=O)[O-] | 25.6% |  | 32.6 µM [rising, single point] |
| COC(=O)Cc1c(C)c2ccc(OCC(=O)N3CCCC3)c(C)c2oc1=O |  |  | 29.1 µM [falling, single point] |
| CCCOc1ccccc1C1NC(=O)NC(C)=C1C(=O)OCCOC (stereo not drawn) | 3.07% |  | 0.146 µM [falling, full curve, poor fit] |
| CCCCc1c(C)nn(-c2nnc3c4ccccc4n(CC)c3n2)c1C | -52.6% | 11.6 µM [falling, partial curve, poor fit] | 23.1 µM [falling, single point] |
| Cc1ccc(SCC(=O)NCc2ccncc2)cc1 | 100% | 1.46 µM [rising, partial curve] | 0.731 µM [rising, partial curve, poor fit] |
| O=C(c1cc(-c2ccccc2)nc2ccccc12)N1CCOCC1 | -18.5% |  | 7.31 µM [rising, partial curve, poor fit] |
| CN(C)CCn1c2ccccc2c2nc3ccc([N+](=O)[O-])cc3cc21 |  |  | 20.6 µM [falling, single point] |
| CCOc1ccc(NC(=O)CN(C)C(=O)c2ccc(N3CCCCC3)c([N+](=O)[O-])c2)cc1OCC |  |  | 29.1 µM [rising, single point] |
| O=c1c2ccccc2n2nnnc2n1-c1ccccc1 | -15.6% | 0.00731 µM [falling, full curve, poor fit] |  |
| O=C(Cc1cccc(C(F)(F)F)c1)Nc1ccc(S(=O)(=O)N2CCCC2)cc1 | -61.2% | 14.6 µM [falling, partial curve] |  |
| CCOC(=O)CC(=O)CSc1nc2c(cc1C#N)CCCCCC2 | 22% | 0.0103 µM [rising, full curve, poor fit] |  |
| CCOC(=O)C1CCCCN1Cc1ccccc1C(F)(F)F (stereo not drawn) | 34.5% | 29.1 µM [rising, single point] |  |
| Cc1ccc(C(CC(=O)N2CCOCC2)c2ccco2)cc1 (stereo not drawn) | -29.2% |  | 18.4 µM [falling, partial curve] |
| c1ccc(-n2cc(CN3CCCC3)c(-c3ccc4c(c3)OCO4)n2)cc1 | 0.393% |  |  |
| Cc1cc2c(s1)c1cnn(Cc3ccccc3F)c(=O)c1n2C | 43.8% and -9.19% | 11.6 µM [rising, partial curve, poor fit] | 25.9 µM [rising, partial curve] and 731 nM [rising, full curve, poor fit] |

Some of the entries so far, comma-delimited.
SMILES,cell number change,AC50 [1],AC50 [2]
CN(C)CCn1c2ccccc2c2nc3ccc([N+](=O)[O-])cc3cc21,,,"20.6 µM [falling, single point]"
O=c1c2ccccc2n2nnnc2n1-c1ccccc1,-15.6%,"0.00731 µM [falling, full curve, poor fit]",
Cc1cc2c(s1)c1cnn(Cc3ccccc3F)c(=O)c1n2C,43.8% and -9.19%,"11.6 µM [rising, partial curve, poor fit]","25.9 µM [rising, partial curve] and 731 nM [rising, full curve, poor fit]"

— PubChem BioAssay AID2685 (National Center for Advancing Translational Sciences (NCATS), 2010)
